From paper PMC4432227 come the findings set out here.

Sequences of proteins named here, by UniProt entry; tags and fusion partners are left off.
UniProt Q9NVJ2: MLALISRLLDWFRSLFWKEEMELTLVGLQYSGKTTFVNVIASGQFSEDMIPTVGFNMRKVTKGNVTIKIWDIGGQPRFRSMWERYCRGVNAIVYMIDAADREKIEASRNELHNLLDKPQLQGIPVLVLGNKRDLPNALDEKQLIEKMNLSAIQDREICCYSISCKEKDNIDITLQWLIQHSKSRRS

These are yes or no findings as the source states them, for the method shown. For some assays here: In cells and extracts the contact can be indirect. Some results given as binding are weak or reduced against the parent protein; the word gives no strength. Tags and fused reporters may be left off the sequences shown.

Test [1] concerns the target Arl8b (yeast two-hybrid fusion, Arl8b-pGBKT7) (UniProt Q9NVJ2). The test is described as follows: two-hybrid; S. cerevisiae AH109 co-transformants (pGBKT7 and pGADT7), grown at 30°C, replated on non-selection (+HIS) and selection (−HIS) plates.
Test [2] concerns the target T1, SKIP-NΔ300 (yeast two-hybrid fusion) (UniProt Q8IWE5).
T1 sequence: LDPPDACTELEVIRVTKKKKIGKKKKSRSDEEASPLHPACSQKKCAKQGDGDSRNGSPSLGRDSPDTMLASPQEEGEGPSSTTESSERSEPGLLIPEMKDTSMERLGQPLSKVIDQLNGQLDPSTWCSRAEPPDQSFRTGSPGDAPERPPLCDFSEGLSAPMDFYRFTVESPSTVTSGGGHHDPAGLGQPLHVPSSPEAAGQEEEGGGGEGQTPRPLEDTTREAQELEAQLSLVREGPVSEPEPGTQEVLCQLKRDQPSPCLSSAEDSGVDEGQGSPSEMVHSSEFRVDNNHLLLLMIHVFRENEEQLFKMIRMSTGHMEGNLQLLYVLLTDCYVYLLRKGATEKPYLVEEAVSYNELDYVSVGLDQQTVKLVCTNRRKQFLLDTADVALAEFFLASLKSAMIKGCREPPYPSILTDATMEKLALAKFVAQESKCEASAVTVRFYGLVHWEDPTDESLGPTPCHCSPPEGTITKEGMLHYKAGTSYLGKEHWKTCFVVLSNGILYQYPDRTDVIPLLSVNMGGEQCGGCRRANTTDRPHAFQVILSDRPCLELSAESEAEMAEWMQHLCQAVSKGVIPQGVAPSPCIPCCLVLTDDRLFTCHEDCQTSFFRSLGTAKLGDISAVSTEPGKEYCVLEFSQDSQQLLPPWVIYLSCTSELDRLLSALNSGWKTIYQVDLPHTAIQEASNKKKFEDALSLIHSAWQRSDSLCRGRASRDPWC
The test is described as above.

In test [3] the target is T2, SKIP (yeast two-hybrid fusion) (UniProt Q8IWE5).
T2 sequence: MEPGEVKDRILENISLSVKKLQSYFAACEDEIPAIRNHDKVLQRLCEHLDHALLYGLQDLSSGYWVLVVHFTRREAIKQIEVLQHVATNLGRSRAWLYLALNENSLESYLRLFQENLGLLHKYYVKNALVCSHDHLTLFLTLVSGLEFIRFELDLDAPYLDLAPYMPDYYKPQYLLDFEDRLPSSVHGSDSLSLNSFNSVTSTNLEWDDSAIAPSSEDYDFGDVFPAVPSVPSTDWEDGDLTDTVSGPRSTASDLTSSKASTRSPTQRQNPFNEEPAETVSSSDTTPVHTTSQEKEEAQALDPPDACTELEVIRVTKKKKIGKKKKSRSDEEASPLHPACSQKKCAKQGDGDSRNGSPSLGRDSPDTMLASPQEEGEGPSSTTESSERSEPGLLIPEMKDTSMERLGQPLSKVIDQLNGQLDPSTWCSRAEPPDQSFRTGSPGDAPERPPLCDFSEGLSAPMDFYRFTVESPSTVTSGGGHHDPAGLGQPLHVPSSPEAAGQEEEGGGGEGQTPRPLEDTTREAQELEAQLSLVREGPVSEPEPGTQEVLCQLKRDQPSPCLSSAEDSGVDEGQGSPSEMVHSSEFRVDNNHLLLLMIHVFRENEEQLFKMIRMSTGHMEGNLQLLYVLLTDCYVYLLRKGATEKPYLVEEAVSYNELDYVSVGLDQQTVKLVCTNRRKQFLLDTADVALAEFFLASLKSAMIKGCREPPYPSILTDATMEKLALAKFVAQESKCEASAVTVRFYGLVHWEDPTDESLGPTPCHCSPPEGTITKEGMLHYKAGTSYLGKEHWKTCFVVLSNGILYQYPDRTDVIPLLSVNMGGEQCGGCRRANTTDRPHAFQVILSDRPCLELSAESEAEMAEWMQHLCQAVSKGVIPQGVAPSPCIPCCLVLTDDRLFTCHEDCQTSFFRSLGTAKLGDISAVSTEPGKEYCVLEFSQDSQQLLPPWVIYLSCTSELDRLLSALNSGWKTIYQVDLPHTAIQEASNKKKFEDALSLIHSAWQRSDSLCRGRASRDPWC
The description is as above.

The next test concerns the target T3, Flag–SKIP wild-type (UniProt Q8IWE5).
T3 sequence: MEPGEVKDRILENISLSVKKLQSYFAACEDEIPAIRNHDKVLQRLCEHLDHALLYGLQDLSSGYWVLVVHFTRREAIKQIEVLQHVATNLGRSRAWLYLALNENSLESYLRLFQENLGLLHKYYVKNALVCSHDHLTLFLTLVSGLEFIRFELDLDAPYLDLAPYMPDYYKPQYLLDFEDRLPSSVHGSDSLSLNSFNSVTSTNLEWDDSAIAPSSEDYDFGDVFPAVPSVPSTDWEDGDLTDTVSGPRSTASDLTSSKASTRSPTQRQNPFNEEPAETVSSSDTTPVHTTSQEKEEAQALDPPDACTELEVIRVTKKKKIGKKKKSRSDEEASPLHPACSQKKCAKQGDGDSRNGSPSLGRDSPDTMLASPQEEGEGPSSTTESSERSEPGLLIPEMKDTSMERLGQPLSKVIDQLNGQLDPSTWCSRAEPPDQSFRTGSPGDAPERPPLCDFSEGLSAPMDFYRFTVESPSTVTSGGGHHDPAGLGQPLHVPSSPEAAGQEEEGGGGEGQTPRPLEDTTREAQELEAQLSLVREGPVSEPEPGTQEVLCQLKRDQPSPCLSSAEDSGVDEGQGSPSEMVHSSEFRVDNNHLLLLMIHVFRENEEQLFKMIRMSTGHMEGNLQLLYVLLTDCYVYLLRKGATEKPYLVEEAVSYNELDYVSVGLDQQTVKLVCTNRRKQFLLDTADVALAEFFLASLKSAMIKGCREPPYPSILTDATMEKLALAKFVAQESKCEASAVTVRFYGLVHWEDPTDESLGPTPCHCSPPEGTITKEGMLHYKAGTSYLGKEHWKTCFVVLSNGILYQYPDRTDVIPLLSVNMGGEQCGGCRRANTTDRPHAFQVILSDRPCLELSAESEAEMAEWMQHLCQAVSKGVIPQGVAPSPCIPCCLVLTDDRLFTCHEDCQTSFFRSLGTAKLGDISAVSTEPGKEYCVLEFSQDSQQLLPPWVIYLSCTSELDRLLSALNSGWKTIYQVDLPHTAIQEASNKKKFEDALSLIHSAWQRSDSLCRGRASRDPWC
Description: co-IP; lysates of co-transfected HEK293T cells immunoprecipitated with anti-Flag antibodies, immunoblotted with HA, anti-Vps11 and anti-Vps33a antibodies. In general terms: A western blot detects proteins with antibodies after separation by electrophoresis.

In a further test the target is T4, Flag–SKIP NΔ300 (UniProt Q8IWE5).
T4 sequence: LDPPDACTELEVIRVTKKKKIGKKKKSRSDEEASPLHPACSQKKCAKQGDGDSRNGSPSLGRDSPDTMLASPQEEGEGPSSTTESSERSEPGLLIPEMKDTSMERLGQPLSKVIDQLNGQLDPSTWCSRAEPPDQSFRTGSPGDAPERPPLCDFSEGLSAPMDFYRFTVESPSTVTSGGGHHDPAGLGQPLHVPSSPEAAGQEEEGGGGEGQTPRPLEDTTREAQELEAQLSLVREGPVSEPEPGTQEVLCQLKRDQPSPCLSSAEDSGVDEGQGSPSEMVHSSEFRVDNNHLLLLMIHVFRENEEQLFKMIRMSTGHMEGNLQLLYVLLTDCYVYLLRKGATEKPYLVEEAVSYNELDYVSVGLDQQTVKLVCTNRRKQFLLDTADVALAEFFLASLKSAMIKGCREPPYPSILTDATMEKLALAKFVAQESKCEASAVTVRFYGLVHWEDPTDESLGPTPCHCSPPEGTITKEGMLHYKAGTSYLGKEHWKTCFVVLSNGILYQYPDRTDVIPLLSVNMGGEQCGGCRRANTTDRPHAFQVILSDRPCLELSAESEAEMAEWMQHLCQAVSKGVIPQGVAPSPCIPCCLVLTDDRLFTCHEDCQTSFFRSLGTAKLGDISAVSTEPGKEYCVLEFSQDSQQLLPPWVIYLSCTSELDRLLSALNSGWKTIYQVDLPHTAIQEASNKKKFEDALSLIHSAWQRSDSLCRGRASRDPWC
The test is described as above.

B1: hVps39 (yeast two-hybrid fusion) (protein, UniProt Q96JC1 1-886)
chain: MHDAFEPVPILEKLPLQIDCLAAWEEWLLVGTKQGHLLLYRIRKDVVPADVASPESGSCNRFEVTLEKSNKNFSKKIQQIHVVSQFKILVSLLENNIYVHDLLTFQQITTVSKAKGASLFTCDLQHTETGEEVLRMCVAVKKKLQLYFWKDREFHELQGDFSVPDVPKSMAWCENSICVGFKRDYYLIRVDGKGSIKELFPTGKQLEPLVAPLADGKVAVGQDDLTVVLNEEGICTQKCALNWTDIPVAMEHQPPYIIAVLPRYVEIRTFEPRLLVQSIELQRPRFITSGGSNIIYVASNHFVWRLIPVPMATQIQQLLQDKQFELALQLAEMKDDSDSEKQQQIHHIKNLYAFNLFCQKRFDESMQVFAKLGTDPTHVMGLYPDLLPTDYRKQLQYPNPLPVLSGAELEKAHLALIDYLTQKRSQLVKKLNDSDHQSSTSPLMEGTPTIKSKKKLLQIIDTTLLKCYLHTNVALVAPLLRLENNHCHIEESEHVLKKAHKYSELIILYEKKGLHEKALQVLVDQSKKANSPLKGHERTVQYLQHLGTENLHLIFSYSVWVLRDFPEDGLKIFTEDLPEVESLPRDRVLGFLIENFKGLAIPYLEHIIHVWEETGSRFHNCLIQLYCEKVQGLMKEYLLSFPAGKTPVPAGEEEGELGEYRQKLLMFLEISSYYDPGRLICDFPFDGLLEERALLLGRMGKHEQALFIYVHILKDTRMAEEYCHKHYDRNKDGNKDVYLSLLRMYLSPPSIHCLGPIKLELLEPKANLQAALQVLELHHSKLDTTKALNLLPANTQINDIRIFLEKVLEENAQKKRFNQVLKNLLHAEFLRVQEERILHQQVKCIITEEKVCMVCKKKIGNSAFARYPNGVVVHYFCSKEVNPADT
Turning to B1, the results for the binding entry in test [1], in test [2] and in test [3] were “no binding”, “binds” and “binds”, respectively.

B2: HA–Vps39 (HEK293T) (protein, UniProt Q96JC1 1-886)
chain: MHDAFEPVPILEKLPLQIDCLAAWEEWLLVGTKQGHLLLYRIRKDVVPADVASPESGSCNRFEVTLEKSNKNFSKKIQQIHVVSQFKILVSLLENNIYVHDLLTFQQITTVSKAKGASLFTCDLQHTETGEEVLRMCVAVKKKLQLYFWKDREFHELQGDFSVPDVPKSMAWCENSICVGFKRDYYLIRVDGKGSIKELFPTGKQLEPLVAPLADGKVAVGQDDLTVVLNEEGICTQKCALNWTDIPVAMEHQPPYIIAVLPRYVEIRTFEPRLLVQSIELQRPRFITSGGSNIIYVASNHFVWRLIPVPMATQIQQLLQDKQFELALQLAEMKDDSDSEKQQQIHHIKNLYAFNLFCQKRFDESMQVFAKLGTDPTHVMGLYPDLLPTDYRKQLQYPNPLPVLSGAELEKAHLALIDYLTQKRSQLVKKLNDSDHQSSTSPLMEGTPTIKSKKKLLQIIDTTLLKCYLHTNVALVAPLLRLENNHCHIEESEHVLKKAHKYSELIILYEKKGLHEKALQVLVDQSKKANSPLKGHERTVQYLQHLGTENLHLIFSYSVWVLRDFPEDGLKIFTEDLPEVESLPRDRVLGFLIENFKGLAIPYLEHIIHVWEETGSRFHNCLIQLYCEKVQGLMKEYLLSFPAGKTPVPAGEEEGELGEYRQKLLMFLEISSYYDPGRLICDFPFDGLLEERALLLGRMGKHEQALFIYVHILKDTRMAEEYCHKHYDRNKDGNKDVYLSLLRMYLSPPSIHCLGPIKLELLEPKANLQAALQVLELHHSKLDTTKALNLLPANTQINDIRIFLEKVLEENAQKKRFNQVLKNLLHAEFLRVQEERILHQQVKCIITEEKVCMVCKKKIGNSAFARYPNGVVVHYFCSKEVNPADT
B2: the binding result in the test with Flag–SKIP wild-type and in the test with Flag–SKIP NΔ300 was “binds” each time.
